Assay results published in patent US20030215854.

By UniProt entry, the sequences of proteins in these tests, tags left out.
UniProt Q04206, whole entry: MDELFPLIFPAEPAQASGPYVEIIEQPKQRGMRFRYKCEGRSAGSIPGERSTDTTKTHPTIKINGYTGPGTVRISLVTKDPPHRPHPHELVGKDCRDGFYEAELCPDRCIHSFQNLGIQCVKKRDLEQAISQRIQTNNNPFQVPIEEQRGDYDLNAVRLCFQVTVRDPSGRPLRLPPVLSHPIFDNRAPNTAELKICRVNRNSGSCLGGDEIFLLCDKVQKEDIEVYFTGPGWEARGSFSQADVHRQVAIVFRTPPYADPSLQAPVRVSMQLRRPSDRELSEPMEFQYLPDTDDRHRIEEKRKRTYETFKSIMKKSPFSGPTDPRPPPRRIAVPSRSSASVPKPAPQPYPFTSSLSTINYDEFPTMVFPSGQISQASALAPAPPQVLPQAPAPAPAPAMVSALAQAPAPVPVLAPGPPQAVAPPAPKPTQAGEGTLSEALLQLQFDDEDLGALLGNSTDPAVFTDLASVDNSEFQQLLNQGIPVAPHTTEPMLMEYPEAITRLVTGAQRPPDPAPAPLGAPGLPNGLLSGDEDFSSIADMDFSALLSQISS

Tests used:
[1] = biological target: NF-kB p65 (TNF-alpha stimulated HeLa nuclear extract) (Homo sapiens) (UniProt Q04206); assay: binding assay; conditions: capture by anti-p65 on protein G beads, Luminex; TNF-stimulated extract; no numerical data; poly dI-dC; protein in an extract; label: 5' biotin
[2] = biological target: T1, NF-kB p50 (TNF-treated HeLa nuclear extract) (Homo sapiens) (UniProt P19838); assay: binding assay; conditions: internal amino-C6 between the two parts, coupled to beads; protection from EcoRI cleavage, Luminex; no numerical data; poly dI-dC; protein in an extract; label: 5' biotin
T1 sequence (looked up, limits assumed): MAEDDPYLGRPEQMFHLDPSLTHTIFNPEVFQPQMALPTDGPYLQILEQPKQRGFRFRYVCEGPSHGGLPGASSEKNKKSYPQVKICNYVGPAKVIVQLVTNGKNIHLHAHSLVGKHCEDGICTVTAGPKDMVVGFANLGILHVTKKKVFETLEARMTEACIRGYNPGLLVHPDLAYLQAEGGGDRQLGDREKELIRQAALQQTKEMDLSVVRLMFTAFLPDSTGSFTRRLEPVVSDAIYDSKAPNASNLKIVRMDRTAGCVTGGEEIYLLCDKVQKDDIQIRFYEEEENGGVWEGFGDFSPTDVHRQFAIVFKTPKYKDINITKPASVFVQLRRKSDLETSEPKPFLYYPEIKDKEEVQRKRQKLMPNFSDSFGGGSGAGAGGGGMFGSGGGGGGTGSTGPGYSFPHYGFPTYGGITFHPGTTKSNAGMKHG

Sequence | binding result [1] | binding result [2]
TATCCAAGGGGACTTTCCCCTGGCAGGGGAAAGTCCCCTTGGATA [biotin-HPNFKB65] | binds | –
TCCAAGGGGATTCCCCAGTGTACTGGGGAATCCCCTTGGA [KBREHP] | – | binds

The exact form of at least one protein or probe is not confirmed. Results from cells or extracts need not show a direct contact. For some assays here: Protein sequences can lack the tags named with them.
